Laboratory results: PubChem BioAssay AID1259425 (University of Nebraska Medical Center, 2018)
Shown is a random part of about 14,000 reagents tested. Not all columns of the deposit are shown. The record does not give: the time to read-out.

Screen: 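Seek colon cancer weak points whose silencing resembles KSR1 loss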 (primary screen)
Cells: HCT116 human colon cancer cells
Reagent: siRNA pool against human genes, 50 nM siRNA
Measured: 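mRNA of six signature genes measured together by branched-DNA assay after 50 nM siRNA pool, blank removed, divided by geometric mean of two housekeeping genes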
Direction: BNIP3L mRNA: higher = more BNIP3L transcript after knockdown

| gene knocked down | BNIP3L mRNA, set 1 |
| --- | --- |
| OR2F1 (olfactory receptor family 2 subfamily F member 1) | 0.156 |
| TATDN2 (TatD DNase domain containing 2) | 0.0778 |
| EBP (EBP cholestenol delta-isomerase) | 0.142 |
| SEPSECS | 0.0865 |
| PIPOX (pipecolic acid and sarcosine oxidase) | 0.121 |
| FABP2 (fatty acid binding protein 2) | 0.0867 |
| ALKBH7 (alkB homolog 7, RNA demethylase) | 0.174 |
| ADGRF3 (adhesion G protein-coupled receptor F3) | 0.112 |
| ACVR1C (activin A receptor type 1C) | 0.09 |
| ASCC2 (activating signal cointegrator 1 complex subunit 2) | 0.166 |
| SLC7A14 | 0.106 |
| ZFY (zinc finger protein Y-linked) | 0.107 |
| GAB3 (GRB2 associated binding protein 3) | 0.0939 |
| DYNC1I2 (dynein cytoplasmic 1 intermediate chain 2) | 0.105 |
| AANAT (aralkylamine N-acetyltransferase) | 0.165 |
| AHCY (adenosylhomocysteinase) | 0.0907 |
| ARHGAP22 (Rho GTPase activating protein 22) | 0.206 |

7 consecutive reagents already listed, quoted:
| gene knocked down | BNIP3L mRNA, set 1 |
| --- | --- |
| SLC7A14 | 0.106 |
| ZFY (zinc finger protein Y-linked) | 0.107 |
| GAB3 (GRB2 associated binding protein 3) | 0.0939 |
| DYNC1I2 (dynein cytoplasmic 1 intermediate chain 2) | 0.105 |
| AANAT (aralkylamine N-acetyltransferase) | 0.165 |
| AHCY (adenosylhomocysteinase) | 0.0907 |
| ARHGAP22 (Rho GTPase activating protein 22) | 0.206 |

Further entries:
| gene knocked down | BNIP3L mRNA, set 1 |
| --- | --- |
| THAP12 (THAP domain containing 12) | 0.131 |
| KCNJ16 (potassium inwardly rectifying channel subfamily J member 16) | 0.0601 |
| DHRS9 (dehydrogenase/reductase 9) | 0.215 |
| NUCB2 (nucleobindin 2) | 0.0757 |
| SETDB1 (SET domain bifurcated histone lysine methyltransferase 1) | 0.133 |
| PRKACB (protein kinase cAMP-activated catalytic subunit beta) | 0.0918 |
| AKAP12 (A-kinase anchoring protein 12) | 0.112 |
| NANOG (Nanog homeobox) | 0.342 |
| CTAGE1 (cutaneous T cell lymphoma-associated antigen 1) | 0.082 |
| PRPF38B (pre-mRNA processing factor 38B) | 0.0565 |
| DRP2 (dystrophin related protein 2) | 0.198 |
| PARP9 (poly(ADP-ribose) polymerase family member 9) | 0.176 |
| SOX10 (SRY-box transcription factor 10) | 0.356 |
| CCDC6 (coiled-coil domain containing 6) | 0.125 |
| ZMAT3 (zinc finger matrin-type 3) | 0.0742 |
| SMYD5 (SMYD family member 5) | 0.15 |
| ARHGAP32 (Rho GTPase activating protein 32) | 0.295 |
| LRRC7 (leucine rich repeat containing 7) | 0.21 |
| HOXA7 (homeobox A7) | 0.0759 |
| SLC6A20 | 0.11 |
| CBS (cystathionine beta-synthase) | 0.185 |
| VPS35 (VPS35 retromer complex component) | 0.175 |
| HCN3 | 0.0791 |
| PEX10 (peroxisomal biogenesis factor 10) | 0.1 |
| ZNFX1 (zinc finger NFX1-type containing 1) | 0.164 |
| GAL3ST2 (galactose-3-O-sulfotransferase 2) | 0.183 |
| VRK3 (VRK serine/threonine kinase 3) | 0.0716 |
| POMT2 (protein O-mannosyltransferase 2) | 0.0602 |
| SLC16A6 | 0.105 |
| SEMA4G (semaphorin 4G) | 0.114 |
| CFAP410 (cilia and flagella associated protein 410) | 0.17 |
| SYK (spleen associated tyrosine kinase) | 0.218 |
| UGT1A7 (UDP glucuronosyltransferase family 1 member A7) | 0.0825 |
